The values that follow come from paper PMC12307804.

Protein sequences, listed by entry. Tags and fused reporters are not part of them.
UniProt Q9C5T4: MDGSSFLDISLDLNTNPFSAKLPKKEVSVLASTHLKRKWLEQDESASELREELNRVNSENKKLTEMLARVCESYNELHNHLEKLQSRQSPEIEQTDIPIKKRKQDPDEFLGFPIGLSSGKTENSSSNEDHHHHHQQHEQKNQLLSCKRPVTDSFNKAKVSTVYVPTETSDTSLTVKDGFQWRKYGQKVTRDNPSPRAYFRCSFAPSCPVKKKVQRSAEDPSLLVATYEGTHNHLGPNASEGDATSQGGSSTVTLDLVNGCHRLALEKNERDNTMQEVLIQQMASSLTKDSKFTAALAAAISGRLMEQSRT

These are yes or no findings as the source states them, for the method shown. Binding seen in cells or lysates may run through a third protein. Some binding calls cover weakened binding; strength is not graded here.

In assay [1] the target is WRKY18 (Arabidopsis thaliana) (UniProt Q9C5T4). Kind of assay: split reporter; ratiometric BiFC (pBiFCt-2in1-NN) in transiently transformed Arabidopsis protoplasts, overnight incubation in the dark, read by flow cytometry (CytoFLEX).
The target is the same in assay [2]. Kind of assay: split reporter; BiFC 2in1 (pBiFCt2in1-NN, both partners in one vector, 35S promoter, RFP as internal control) in transiently transformed N. benthamiana leaves; confocal microscopy two days after infiltration; YFP/RFP ratio for each nucleus.

With WRKY18 (from UniProt Q9C5T4 1-310), the binding entry in assay [1] and in assay [2] was “binds” each time.
